Measurements as given in PubChem BioAssay AID1347423 (Functional Genomics Laboratory (NCATS/FGL), 2020).
About 210 (0.4%) of roughly 52,000 sequences were called active.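 Rule for the calls: active = gene whose silencing raises cell survival under the drug, median off-target-corrected z-score across its silencing RNAs 2 or more; inactive = the rest.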 Some of the results follow.

Assay: Resistance to Poly (ADP-Ribose) Polymerase inhibitor: Gene Identification via Genome-wide siRNA Screen
Conditions: mouse BRCA2 R2336H ES cells, olaparib, CellTiter-Glo viability; active compounds read high
In short: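 Genome-wide siRNA screen (3 siRNAs/gene, 20 nM) in mouse ES cells carrying hypomorphic BRCA2 R2336H; olaparib 500 nM added 48 h post-transfection, CellTiter-Glo viability 72 h later. Normalized to plate-median negative control; MAD z-scores, gene median, seed-adjusted.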

Sequence	z-score
GGAAUUCCUCCUAUGUUCATT against E430034L04Rik	inactive: -0.0851
GGCUUUCCAGAAGACAGAATT against Cyp2s1	inactive: 0.449
GGAAAGGAUACUAUGAGGATT against 1700031F13Rik	inactive: 1.02
GGAAUUGAAGGGUACUUAATT against 4632417K18Rik	inactive: 0.699
GCUGAGAGACUUGUGAAAUTT against Np15	inactive: -0.619
GGAGUGACAGUUUUUAUUCTT against Hoxd10	inactive: 0.0365
GGAUUUUUACAGAGACAUGTT against Actr6	inactive: 0.674
CCGUGUGAUCAAUGUGAAUTT against Casq1	inactive: 0.876
GGAGAAAGCUUGUGUGGUGTT against 2810405K02Rik	inactive: 0.0334
CCAAUAACUCGAAACUGGCTT against Cdc16	inactive: 0.178
GGAGUGUGUAAAGACAUAATT against Ear11	inactive: -0.851
GGAGAAAUUAGGAUUACCATT against Pcdhac2	inactive: -0.503
CCUGCUUACGUACAAGACCTT against Tekt1	inactive: 0.888
UCCUUGCUGUCCUAACCAUTT against Gpr119	inactive: -0.623
GGCAGAAAGUGAAGAGUUGTT against Kazald1	inactive: 0.64
UUACUGGUUGCUGUUGUGGTT against Thoc4	inactive: -1.44
GGUUGAAGUCACAAAAGAATT against Prkg1	inactive: 0.288
GCCUAUCCGACAACUUAGUTT against Slc25a17	inactive: -0.427
GGACCAUCACACACAUUGATT against 1110025G12Rik	inactive: -0.547
GGACGAGGUGGAAAAGUAUTT against Tpm2	inactive: -1.5
GGAGAGAGUGCAUCUAUAATT against Gdi3	inactive: -0.251
GGAUUCAAAGCUUCCUUUATT against Eras	inactive: 0.0631
GCCUGAAUCACAUGACUUCTT against Iigp2	inactive: 0.696
GGAGCUGAACUCAAUGGUATT against Hoxd3	inactive: 0.492
GGAUCACUUUUAGUUUUCUTT against C230013L11Rik	inactive: -0.733
CCUAGUCCCUCUGUCUCUUTT against Kctd13	inactive: -0.55

Sequence	z-score
GCAUGAUAAGGCAGCCGUATT against Amelx	inactive: -0.474
CCCGCCUAAUUCUAAAGUCTT against Aqp8	inactive: 0.862
GGAUCUACAACAUGGAAAUTT against Mrps21	inactive: 1.15
CCAACUCCUAACAGACCUATT against Csf2rb1	inactive: -0.313
CGGAAUCAUACCCUGCUGUTT against Ube2q	inactive: 0.569
GGGUAUAAGGUCCCUUUUUTT against 5830443L24Rik	inactive: -1.36
GCUUCUCCUCUUUGGAUUATT against Olfr866	inactive: 1.08
GGCAGCCUUAUCCACGUGATT against Ces2	inactive: 2.26
CCUUGUCGAGCACAUGAGATT against Zfp69	inactive: -0.582
CCAUGAAACUUAAAAUCCUTT against Tmem30b	inactive: 0.575
GGGCAGUUUUACUUUGUAATT against Golga2	inactive: -2.05
GCAGCAGUGUUCACCAAAATT against Aldh1a3	inactive: -2.09
GGCGAACUGUUCGAUUGCGTT against 5730538E15Rik	inactive: -1.17
GGAUGACAGUGAAUUAGACTT against 1810015C04Rik	inactive: 0.694
GGCAUCCAAUGAUUACAAATT against Ubash3a	inactive: 0.288
GUGUGGUCACCAUUGUCCUTT against Ptprcap	inactive: -0.859
GGCGAGCAUGAUCAUCCCATT against Gcm1	inactive: 2.35
GCCUGUGGUGACAAGCAGATT against 3830422K02Rik	inactive: 0.776
GGGAGAAAAGGGUCAAAAATT against Marco	inactive: 0.352
GCAGCACUGGCUAUUGAGATT against Man1b	inactive: -0.173
GGCUUUAGUUGUCUUUUAUTT against Il8ra	inactive: 0.434
GGAGCACUAUGAUGAGUUCTT against U2af1	inactive: -2.85
CCGGUUUAUGUCCUCUAUATT against Slc8a1	inactive: 0.781
CCUUGAUCUACAUAGAACCTT against Olfr177	inactive: 0.142
GGAUGUUCCAGCCCUUAUUTT against Zcchc5	inactive: -2.36
GCCUGUUUUGCCUAAAGUGTT against Hnrpdl	inactive: 0.72

Sequence	z-score
GGAGAGUUGGGACUAUGCATT against Cd37	inactive: -0.176
GUGUAGCUAGGAUUGUCAATT against 2310016F22Rik	inactive: 0.248
GGGCAAAAUACAAAAGGAGTT against Mlph	inactive: -0.528
GGAUUUUUGCCAGUUAGUATT against D10Ertd438e	inactive: -2.26
GCUACUGACCAUUCUAACUTT against 1110012D08Rik	inactive: -0.266
CGUAAGAAAAAUAGCACAUTT against G630039H03Rik	inactive: 0.197
GGAGUUUGUCAACGAGGUGTT against Arl10a	inactive: -0.377
GGGACAUUUUCAGUUUUCUTT against 6720456B07Rik	inactive: 0.631
GAUUGGAGUGGUCUCUGCUTT against 2410014A08Rik	inactive: 0.347
GCAGGAGUCAAACGAGUACTT against Vim	inactive: -1.05
GGAAUAUGCACUUAAGCAATT against 2700084L06Rik	inactive: -0.421
GCUCUCUCUCUUCUUACUGTT against Olfr1160	inactive: -0.186
GCUCCUUUUUCCUCUCUUUTT against Defb23	inactive: -0.99
GGAAAGAGGAAUCAAGAAATT against Slc23a2	inactive: -0.0929
CCACAGAAUAAGACAAUAUTT against Fbxo34	inactive: -1.38
GGCAGUGGCAAAUCAAGAUTT against Pop1	inactive: 1.6
GGUCAAGAGGGAAAACUUUTT against Ctps	inactive: -1.59
GGAAAUGCAGAACCGAACATT against Echs1	inactive: -0.192
GCGGCGCAUGACUGAAAGATT against Chd8	inactive: -1.43
CCCUUUGAUAUGAAGUCAATT against Copg2	inactive: 2.14
GGCCUGUGAGACCAAUUGGTT against 9330199A09Rik	inactive: 0.0898
GCAUAAGGACCCUUUGUCATT against Rasl10b	inactive: -1.19
CGGAUCCUGGUCACCAUUUTT against Olfr95	inactive: -0.0093
GGUCCUGUUAGUGUUUACCTT against Pde8a	inactive: 1.59
GGGCUAAGGACAGAAUUACTT against Tusc2	inactive: 0.895
GCUCAGCUGUGGGUAAUACTT against A430091O22Rik	inactive: -0.71

Sequence	z-score
GGCAUGGAUUGGUGAGAUUTT against 9330175E14Rik	inactive: -1.05
GGUUUUUUAACAGAGAUCCTT against Hipk1	inactive: 0.916
GGAGGAUUCCCUCUAUAUUTT against Slc33a1	inactive: 0.624
GCUAAGUGGAGUUUAUGCUTT against D8Ertd319e	inactive: 1.85
GGACGAUUGCCAUAUGAACTT against Narg2	inactive: 0.841
GGAAAGUCAAUCAGAAAAUTT against Dars	inactive: -0.458
GCUGUCUGAUUCUGAGGUGTT against Slc6a1	inactive: -0.947
CGCAUUUGAAGUGUUCGACTT against 1700073K01Rik	inactive: 1.07
GCCCUUUGGCAAUGUGAGATT against Opn1mw	inactive: 1.56
GGAAGUAUUUCACAUGUGATT against Dctn1	inactive: -1.78
GGGUUAUGGCUGGAAUCUGTT against Slc12a9	inactive: 2.36
GGACUGCACCUUUUGGCAUTT against Tlr11	inactive: -1.12
GCAAAAUUCCUAGCCGUUUTT against C330012H03Rik	inactive: -0.826
GGUAGGUUAAAGAGACUUUTT against Msx1	inactive: -1.72
GCACAAGAAAUCGAAUAUGTT against Acr	inactive: 0.146
CCUAAGACGUGGACUGGUGTT against D10628	inactive: 2.44
CCUACACUGAGAUUUCAACTT against 4833432M17Rik	inactive: -0.309
GGCUCAGUCAGUGACUGUATT against Erf	inactive: -0.856
GGGAUGAAUUGGUUGUUUATT against Large	inactive: 0.687
GUUUUCUGAGGUGAACAGATT against AI505652	inactive: 0.92
GGUACCCAGCGAUCAUGCATT against Olfr1370	inactive: -0.151
GGUAUGAGCAACCUAAGUGTT against Smoc2	inactive: -1.56
GGUGUCCUAUGUGAAGGAGTT against Trmt1	inactive: -1.21
GGUCUCAGUUGGAAUUAUUTT against 9030416H16Rik	inactive: -0.957
GCUAGACUUCUUUGUGCGATT against Abhd8	inactive: -0.388

Some of the entries so far, as a markdown table.

| Sequence | z-score |
| --- | --- |
| GGGAUGAAUUGGUUGUUUATT against Large | inactive: 0.687 |
| GUUUUCUGAGGUGAACAGATT against AI505652 | inactive: 0.92 |

Copied from the results shown for reference:
Sequence	z-score
GCAAAAUUCCUAGCCGUUUTT against C330012H03Rik	inactive: -0.826
GGUAGGUUAAAGAGACUUUTT against Msx1	inactive: -1.72
